This note sets out measurements from article PMC10517019.

By UniProt entry, the sequences of proteins in these tests, tags left out.
UniProt P26038: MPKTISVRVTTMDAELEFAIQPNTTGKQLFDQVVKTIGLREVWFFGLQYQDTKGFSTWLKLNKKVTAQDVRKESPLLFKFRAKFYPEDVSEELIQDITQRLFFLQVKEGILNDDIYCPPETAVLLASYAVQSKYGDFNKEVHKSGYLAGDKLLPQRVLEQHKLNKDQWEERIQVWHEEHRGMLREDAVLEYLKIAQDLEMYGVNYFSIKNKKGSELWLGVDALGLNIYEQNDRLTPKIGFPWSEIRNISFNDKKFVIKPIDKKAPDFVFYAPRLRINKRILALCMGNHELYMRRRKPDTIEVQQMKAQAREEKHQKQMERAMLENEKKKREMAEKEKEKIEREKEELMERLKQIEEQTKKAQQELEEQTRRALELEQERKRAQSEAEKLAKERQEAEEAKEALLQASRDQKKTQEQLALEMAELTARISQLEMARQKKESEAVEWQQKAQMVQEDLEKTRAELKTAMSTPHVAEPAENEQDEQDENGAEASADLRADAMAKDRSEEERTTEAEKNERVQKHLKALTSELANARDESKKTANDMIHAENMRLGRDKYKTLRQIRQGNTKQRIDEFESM

No constants are given. Whether binding was seen depends on the method and setting. Binding seen in cells or lysates may run through a third protein. Here binding means that the protein was enriched with, or labelled near, the bait; the list need not be complete.

The target in this assay is T1, F-box and WD repeat-containing protein 2 (FBXW2), endogenous (human (endogenous in MCF7 and MDA-MB-231)) (UniProt Q9UKT8).
T1 sequence: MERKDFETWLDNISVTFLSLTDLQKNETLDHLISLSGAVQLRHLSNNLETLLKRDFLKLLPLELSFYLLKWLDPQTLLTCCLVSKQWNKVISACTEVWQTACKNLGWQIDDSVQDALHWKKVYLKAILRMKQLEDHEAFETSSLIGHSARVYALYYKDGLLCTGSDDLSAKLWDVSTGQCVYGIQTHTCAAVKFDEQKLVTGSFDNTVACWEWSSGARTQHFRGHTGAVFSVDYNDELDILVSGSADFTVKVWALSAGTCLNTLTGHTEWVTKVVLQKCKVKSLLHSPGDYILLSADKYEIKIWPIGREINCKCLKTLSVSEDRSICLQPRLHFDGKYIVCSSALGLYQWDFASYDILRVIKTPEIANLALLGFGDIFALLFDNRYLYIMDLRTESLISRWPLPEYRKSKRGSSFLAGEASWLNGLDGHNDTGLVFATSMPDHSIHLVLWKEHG
Put plainly: affinity purification with mass spectrometry; FBXW2 immunoprecipitated from MCF7 whole-cell lysate; bands unique to the FBXW2 immunoprecipitate excised from SDS-PAGE, trypsin digested, LC-MS/MS.

With “Membrane-organizing extension spike protein (Moesin), endogenous (from UniProt P26038 1-577)”, the binding result was “binds”.
